Laboratory results taken from patent US20240402196A1 (Exact Sciences Corporation, priority 2018, published 2024).
At least one structure is not confirmed: it was looked up by name or label, or the drawing left a doubt.

Sequences of proteins named here, by UniProt entry; tags and fusion partners are left off. Residues count along the entry.
UniProt P68871, 2-147 limits assumed: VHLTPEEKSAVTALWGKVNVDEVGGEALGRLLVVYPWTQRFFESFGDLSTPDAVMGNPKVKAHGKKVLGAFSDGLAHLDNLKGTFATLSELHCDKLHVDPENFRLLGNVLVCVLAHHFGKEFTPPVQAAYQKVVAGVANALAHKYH
UniProt P69905, 2-142 limits assumed: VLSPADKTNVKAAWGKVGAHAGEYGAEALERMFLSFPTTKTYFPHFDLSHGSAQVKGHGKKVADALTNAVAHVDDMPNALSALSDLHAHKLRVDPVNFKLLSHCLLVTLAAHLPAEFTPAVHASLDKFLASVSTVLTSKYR

How the values were obtained:
[1] = target: T1, Hb (Homo sapiens, UniProt P68871+P69905); experiment: Appendix B additive screen, % Hb Recovery
T1 construct: To assess the stability of hemoglobin in stool samples, samples were exposed to simulated shipping stress conditions; from tissue; host or cells: stool samples

[2] = target: T2, hemoglobin in stool samples (Homo sapiens, UniProt P68871+P69905); experiment: 3-Day shipping simulation, hemoglobin % recovery by ELISA; set-up: from tissue; host or cells: stool samples;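 further: stool samples put through shipping stress in a thermal cycler, hemoglobin quantified by ELISA before and after, stability given as post-stress % of the pre-stress level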
[3] = target: T2, hemoglobin in stool samples; experiment: Accelerated shipping simulation (35C 16 hour challenge), hemoglobin % recovery by ELISA; set-up: from tissue; host or cells: stool samples;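 further: stool hemoglobin measured by ELISA before and after thermal-cycler shipping stress, stability given as percent of pre-stress hemoglobin recovered afterwards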

Measured: Results

O=S1(=O)OC(c2ccc(O)cc2)(c2ccc(O)cc2)c2ccccc21 [Phenol Red]
No improvement: [2]; Additive Concentration 0.01% | [2]; Additive Concentration 0.03% | [2]; Additive Concentration 0.05%
No Improvement: [1]

O=c1cc(-c2ccccc2)oc2cc(O)cc(O)c12 [Chrysin]
No Improvement: [3]; additive concentration 0.0000254 mM | [3]; additive concentration 0.00254 mM | [3]; additive concentration 0.0254 mM | [3]; additive concentration 0.254 mM | [3]; additive concentration 2.54 mM

C=CC1=C(C)/C(=C/c2[nH]c(Cc3[nH]c(/C=C4\NC(=O)C(C)=C4C=C)c(C)c3CCC(=O)O)c(CCC(=O)O)c2C)NC1=O [Bilirubin]
No Improvement: [3]; additive concentration 0.00003% | [3]; additive concentration 0.00030% | [3]; additive concentration 0.00300% | [3]; additive concentration 0.03000%
